From patent US20030028002A1 come the findings set out here.

Sequences of proteins named here, by UniProt entry; tags and fusion partners are left off. A change or cut given only in a name is not applied to a line headed by its entry.
UniProt P04386: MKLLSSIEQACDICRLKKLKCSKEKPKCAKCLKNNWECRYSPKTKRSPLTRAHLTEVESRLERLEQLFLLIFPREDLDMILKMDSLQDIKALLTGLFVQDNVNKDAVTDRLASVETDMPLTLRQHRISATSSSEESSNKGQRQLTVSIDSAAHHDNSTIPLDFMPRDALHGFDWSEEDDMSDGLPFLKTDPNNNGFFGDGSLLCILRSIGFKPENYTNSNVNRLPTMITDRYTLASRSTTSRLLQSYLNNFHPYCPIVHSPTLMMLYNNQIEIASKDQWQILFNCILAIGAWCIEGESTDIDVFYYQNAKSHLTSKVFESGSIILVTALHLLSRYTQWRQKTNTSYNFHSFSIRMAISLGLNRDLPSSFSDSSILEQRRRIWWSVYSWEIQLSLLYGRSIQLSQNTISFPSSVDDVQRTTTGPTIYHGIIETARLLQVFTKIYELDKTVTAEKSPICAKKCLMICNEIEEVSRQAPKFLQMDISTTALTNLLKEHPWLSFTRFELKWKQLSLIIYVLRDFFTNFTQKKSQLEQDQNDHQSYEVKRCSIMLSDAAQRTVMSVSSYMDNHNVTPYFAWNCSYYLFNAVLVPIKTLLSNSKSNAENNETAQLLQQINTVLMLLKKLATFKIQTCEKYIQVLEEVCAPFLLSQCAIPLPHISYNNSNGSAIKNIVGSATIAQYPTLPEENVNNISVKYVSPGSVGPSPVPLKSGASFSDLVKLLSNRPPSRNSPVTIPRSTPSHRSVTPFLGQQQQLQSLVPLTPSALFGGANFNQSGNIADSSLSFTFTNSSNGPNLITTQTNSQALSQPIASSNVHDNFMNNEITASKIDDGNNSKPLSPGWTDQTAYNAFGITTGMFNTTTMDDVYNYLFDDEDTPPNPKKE
UniProt P30280: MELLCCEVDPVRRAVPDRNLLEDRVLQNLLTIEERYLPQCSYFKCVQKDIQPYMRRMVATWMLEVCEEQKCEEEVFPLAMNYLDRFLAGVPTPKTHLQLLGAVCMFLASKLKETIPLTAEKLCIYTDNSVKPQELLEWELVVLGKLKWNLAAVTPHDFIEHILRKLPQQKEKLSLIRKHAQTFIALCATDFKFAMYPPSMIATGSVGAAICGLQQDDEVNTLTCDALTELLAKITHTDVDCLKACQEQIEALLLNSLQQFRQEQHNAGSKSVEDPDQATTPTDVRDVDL
UniProt P25322: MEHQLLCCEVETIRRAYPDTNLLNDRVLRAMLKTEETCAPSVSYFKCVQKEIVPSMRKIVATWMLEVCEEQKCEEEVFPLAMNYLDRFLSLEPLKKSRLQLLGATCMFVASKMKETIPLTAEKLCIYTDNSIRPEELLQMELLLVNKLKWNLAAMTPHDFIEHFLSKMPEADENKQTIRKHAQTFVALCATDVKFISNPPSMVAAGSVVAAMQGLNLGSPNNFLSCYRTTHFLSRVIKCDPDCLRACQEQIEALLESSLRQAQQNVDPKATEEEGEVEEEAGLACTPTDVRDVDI

These are yes or no findings as the source states them, for the method shown. For part of these data: In cells and extracts the contact can be indirect. Some results given as binding are weak or reduced against the parent protein; the word gives no strength. For part of these data: Tags and fused reporters may be left off the sequences shown.

Assay [1] addresses T1, GAL4 DNA-binding domain fused to full length mouse cyclin D2 (bait, pAS2cycD2) (yeast; mouse) (UniProt P04386+P30280). Briefly: yeast two-hybrid.
In assay [2] the target is T1, GAL4 DNA-binding domain fused to full length mouse cyclin D2 (bait, pAS2cycD2) (yeast; mouse). Description: yeast two-hybrid, GAL4 activation domain fusion against the GAL4 DNA-binding domain-cyclin D2 bait.
For a further assay, the target named is cyclin D1 (mouse) (UniProt P25322). Description: coexpression in Sf9 cells, coprecipitation with antiserum to the DMP1 C-terminus.

B1: GAL4 activation domain fused to DMP1 residues 176-761 (clone from the two-hybrid screen) (protein, not shown: large carriers)
chain: GIKDATEIIFEMSKDERKDFYRTIAWGLNRPLFAVYRRVLRMYDDRNHVGKYTPEEIEKLKELRIKHGNDWATIGAALGRSASSVKDRCRLMKDTCNTGKWTEEEEKRLAEVVHELTSTEPGDIVTQGVSWAAVAERVGTRSEKQCRSKWLNYLNWKQSGGTEWTKEDEINLILRIAELDVADENDINWDLLAEGWSSVRSPQWLRSKWWTIKRQIANHKDVSFPVLIKGLKQLHENQKNNPVLLENKSGSGVPNSNCNSSVQHVQIRVARLEDNTAISPSPMAALQIPVQITHVSSTDSPAASADSETITLNSGTLQTFEILPSFPLQPTGTPGTYLLQTSSSQGLPLTLTTNPTLTLAAAAPASPEQIIVHALSPEHLLNTSDNVTVQCHTPRVIIQTVATEDITSSLSQEELTVDSDLHSSDFPEPPDALEADTFPDEIPRPKMTIQPSFNNAHVSKFSDQNSTELMNSVMVRTEEEIADTDLKQEEPPSDLASAYVTEDLESPTIVHQVHQTIDDETILIVPSPHGFIQASDVIDTESVLPLTTLTDPIFQHHQEASNIIGSSLGSPVSEDSKDVEDLVNCH
On to B1, for which the binding result in assay [1] and in assay [2] was “binds” in each case.

B2: DMP1 (cyclin D-binding myb-like protein), murine, full length (protein)
chain: MSTVEEDSDTVTVETVNSVTFTQDTDGNLILHCPQNDPDEVDSEDSTEPPHKRLCLSSEDDQSIDDATPCISVVALPLSENDQSFEVTMTATTEVADDELSEGTVTQIQILQNDQLDEISPLGTEEVSAVSQAWFTTKEDKDSLTNKGHKWKQGMWSKEEIDILMNNIERYLKARGIKDATEIIFEMSKDERKDFYRTIAWGLNRPLFAVYRRVLRMYDDRNHVGKYTPEEIEKLKELRIKHGNDWATIGAALGRSASSVKDRCRLMKDTCNTGKWTEEEEKRLAEVVHELTSTEPGDIVTQGVSWAAVAERVGTRSEKQCRSKWLNYLNWKQSGGTEWTKEDEINLILRIAELDVADENDINWDLLAEGWSSVRSPQWLRSKWWTIKRQIANHKDVSFPVLIKGLKQLHENQKNNPVLLENKSGSGVPNSNCNSSVQHVQIRVARLEDNTAISPSPMAALQIPVQITHVSSTDSPAASADSETITLNSGTLQTFEILPSFPLQPTGTPGTYLLQTSSSQGLPLTLTTNPTLTLAAAAPASPEQIIVHALSPEHLLNTSDNVTVQCHTPRVIIQTVATEDITSSLSQEELTVDSDLHSSDFPEPPDALEADTFPDEIPRPKMTIQPSFNNAHVSKFSDQNSTELMNSVMVRTEEEIADTDLKQEEPPSDLASAYVTEDLESPTIVHQVHQTIDDETILIVPSPHGFIQASDVIDTESVLPLTTLTDPIFQHHQEASNIIGSSLGSPVSEDSKDVEDLVNCH
modifications: multiple phosphorylated forms when made in Sf9 cells (sites not given)
Consider B2, for which the binding result in the assay with cyclin D1 (mouse) is “binds”.
